# From the NIST ThermoML archive (doi:10.1021/acs.jced.6b00813)
# ± gives the expanded uncertainty stated by the source.
# Conditions: 273.15 K; 101.3 kPa; Liquid; Pycnometric method
compound,measurement,value
O [water],mass density,999 ± 2 kg/m3
